Measured values: the supplement of paper PMC10077471
The full ranking holds about 1,900 compounds; the median of “excess over highest single agent (ExcessHSA) synergy score, 6x6 matrix” is about -83, and the lowest 2% start at about -370. This is one part of the list.

Test system: NCI-H446
Assay: excess over highest single agent (ExcessHSA) synergy score, 6x6 matrix; higher = less synergy (more negative = stronger synergy)
Settings: 72 h; CellTiter-Glo viability

Question: With `COc1ccc2cccc(CCNC(C)=O)c2c1` + Cc1sc2c(c1C)C(c1ccc(Cl)cc1)=N[C@@H](CC(=O)OC(C)(C)C)c1nnc(C)n1-2 [NCGC00250412-19] as the compound, how does the “excess over highest single agent” value read?
Answer: The value was -34.9.

Question: With `CN(C)C(=O)c1ccc(S(=O)(=O)c2ccc(NC(=O)[C@@](C)(O)C(F)(F)F)c(Cl)c2)cc1` + Cc1sc2c(c1C)C(c1ccc(Cl)cc1)=N[C@@H](CC(=O)OC(C)(C)C)c1nnc(C)n1-2 [NCGC00250412-19] as the compound, how does the “excess over highest single agent” value read?
Answer: Its value is -99.3.

Question: With `CC(C)NCC(O)c1ccc(NS(C)(=O)=O)cc1` (stereo not drawn) + Cc1sc2c(c1C)C(c1ccc(Cl)cc1)=N[C@@H](CC(=O)OC(C)(C)C)c1nnc(C)n1-2 [NCGC00250412-19] as the compound, how does the “excess over highest single agent” value read?
Answer: The value was -14.7.

Question: With `C#C[C@]1(O)CC[C@H]2[C@@H]3CCc4cc(OC)ccc4[C@H]3CC[C@@]21C` + Cc1sc2c(c1C)C(c1ccc(Cl)cc1)=N[C@@H](CC(=O)OC(C)(C)C)c1nnc(C)n1-2 [NCGC00250412-19] as the compound, how does the “excess over highest single agent” value read?
Answer: Its value is -126.

Question: How did the “excess over highest single agent” value turn out when `CC(=O)N1CCN(c2ccc(OCC3COC(Cn4ccnc4)(c4ccc(Cl)cc4Cl)O3)cc2)CC1` (stereo not drawn) + Cc1sc2c(c1C)C(c1ccc(Cl)cc1)=N[C@@H](CC(=O)OC(C)(C)C)c1nnc(C)n1-2 [NCGC00250412-19] was run?
Answer: The value was -31.4.

Question: `CN(CCOc1ccc(NS(C)(=O)=O)cc1)CCc1ccc(NS(C)(=O)=O)cc1` + Cc1sc2c(c1C)C(c1ccc(Cl)cc1)=N[C@@H](CC(=O)OC(C)(C)C)c1nnc(C)n1-2 [NCGC00250412-19] was tested. Which “excess over highest single agent” value did it give?
Answer: Its value is -135.

Question: `CN(C)CC(=O)N1CCC(c2ccc(NC(=O)c3ncc(C#N)[nH]3)c(C3=CCCCC3)c2)CC1` + Cc1sc2c(c1C)C(c1ccc(Cl)cc1)=N[C@@H](CC(=O)OC(C)(C)C)c1nnc(C)n1-2 [NCGC00250412-19] was tested. Which “excess over highest single agent” value did it give?
Answer: The value was 53.2.

Question: For `Cc1[nH]c(/C=C2\C(=O)Nc3ccccc32)c(C)c1CCC(=O)O` + Cc1sc2c(c1C)C(c1ccc(Cl)cc1)=N[C@@H](CC(=O)OC(C)(C)C)c1nnc(C)n1-2 [NCGC00250412-19], which “excess over highest single agent” value is on record?
Answer: Its value is -45.6.

Question: How did the “excess over highest single agent” value turn out when `CO[C@H]1C[C@@H]2CC[C@@H](C)[C@@](O)(O2)C(=O)C(=O)N2CCCC[C@H]2C(=O)O[C@H]([C@H](C)C[C@@H]2CC[C@@H](O)[C@H](OC)C2)CC(=O)[C@H](C)/C=C(\C)[C@@H](O)[C@@H](OC)C(=O)[C@H](C)C[C@H](C)/C=C/C=C/C=C/1C` + Cc1sc2c(c1C)C(c1ccc(Cl)cc1)=N[C@@H](CC(=O)OC(C)(C)C)c1nnc(C)n1-2 [NCGC00250412-19] was run?
Answer: The value was -737.

Question: `CCN(CC)CCn1c(=O)c(Cc2ccc(OC)cc2)nc2ccccc21` + Cc1sc2c(c1C)C(c1ccc(Cl)cc1)=N[C@@H](CC(=O)OC(C)(C)C)c1nnc(C)n1-2 [NCGC00250412-19] was tested. Which “excess over highest single agent” value did it give?
Answer: The value was -47.3.

Question: `C[C@@H]1CC[C@H]2[C@@H](C)C(=O)O[C@@H]3O[C@@]4(C)CC[C@@H]1[C@]32OO4` + Cc1sc2c(c1C)C(c1ccc(Cl)cc1)=N[C@@H](CC(=O)OC(C)(C)C)c1nnc(C)n1-2 [NCGC00250412-19] was tested. Which “excess over highest single agent” value did it give?
Answer: Its value is -183.

Question: For `Oc1cc(-c2nc(-c3ccccc3)[nH]c2-c2ccncc2)ccc1Cl` + Cc1sc2c(c1C)C(c1ccc(Cl)cc1)=N[C@@H](CC(=O)OC(C)(C)C)c1nnc(C)n1-2 [NCGC00250412-19], which “excess over highest single agent” value is on record?
Answer: The value was -50.

Question: For `CC(C)[C@H](C(=O)Nc1ccc(C(=O)NO)cc1)c1ccccc1` + Cc1sc2c(c1C)C(c1ccc(Cl)cc1)=N[C@@H](CC(=O)OC(C)(C)C)c1nnc(C)n1-2 [NCGC00250412-19], which “excess over highest single agent” value is on record?
Answer: Its value is -112.

Question: For `CNC1CCC(N(Cc2cccc(-c3ccncc3)c2)C(=O)c2sc3ccccc3c2Cl)CC1` (stereo not drawn) + Cc1sc2c(c1C)C(c1ccc(Cl)cc1)=N[C@@H](CC(=O)OC(C)(C)C)c1nnc(C)n1-2 [NCGC00250412-19], which “excess over highest single agent” value is on record?
Answer: Its value is -119.

Question: Which “excess over highest single agent” value does the source give for `NC(=O)c1ccc2nc(-c3ccc(Oc4ccc(Cl)cc4)cc3)[nH]c2c1` + Cc1sc2c(c1C)C(c1ccc(Cl)cc1)=N[C@@H](CC(=O)OC(C)(C)C)c1nnc(C)n1-2 [NCGC00250412-19] here?
Answer: Its value is 83.3.

Question: Which “excess over highest single agent” value does the source give for `CC(=O)NCC(=O)N1[C@@H]2CC[C@H]1c1ccc(Nc3ncc(C(F)(F)F)c(NC4CCC4)n3)cc12` + Cc1sc2c(c1C)C(c1ccc(Cl)cc1)=N[C@@H](CC(=O)OC(C)(C)C)c1nnc(C)n1-2 [NCGC00250412-19] here?
Answer: Its value is -534.

Question: `C=CCc1cc(OC)c(O)c(C(=O)NCCO)c1` + Cc1sc2c(c1C)C(c1ccc(Cl)cc1)=N[C@@H](CC(=O)OC(C)(C)C)c1nnc(C)n1-2 [NCGC00250412-19] was tested. Which “excess over highest single agent” value did it give?
Answer: The value was 33.1.

Question: For `Cc1cc2c(cc1C1(c3ccc(C(=O)O)cn3)CC1)C(C)(C)CCC2(C)C` + Cc1sc2c(c1C)C(c1ccc(Cl)cc1)=N[C@@H](CC(=O)OC(C)(C)C)c1nnc(C)n1-2 [NCGC00250412-19], which “excess over highest single agent” value is on record?
Answer: The value was -297.

Question: Which “excess over highest single agent” value does the source give for `NC(=O)c1cccc2[nH]c(-c3ccc(C4CCCN4)cc3F)nc12` (stereo not drawn) + Cc1sc2c(c1C)C(c1ccc(Cl)cc1)=N[C@@H](CC(=O)OC(C)(C)C)c1nnc(C)n1-2 [NCGC00250412-19] here?
Answer: Its value is -20.3.

Question: Which “excess over highest single agent” value does the source give for `Cc1cc(C(=O)N2CCN(c3cccc(Cl)c3)CC2)n(-c2ccccc2)n1` + Cc1sc2c(c1C)C(c1ccc(Cl)cc1)=N[C@@H](CC(=O)OC(C)(C)C)c1nnc(C)n1-2 [NCGC00250412-19] here?
Answer: The value was -153.

Question: `COc1cc2c(cc1O)CC[C@@H]1[C@@H]2CC[C@]2(C)[C@@H](O)CC[C@@H]12` + Cc1sc2c(c1C)C(c1ccc(Cl)cc1)=N[C@@H](CC(=O)OC(C)(C)C)c1nnc(C)n1-2 [NCGC00250412-19] was tested. Which “excess over highest single agent” value did it give?
Answer: Its value is -161.

Question: `Clc1ccccc1CN1CCc2sccc2C1` + Cc1sc2c(c1C)C(c1ccc(Cl)cc1)=N[C@@H](CC(=O)OC(C)(C)C)c1nnc(C)n1-2 [NCGC00250412-19] was tested. Which “excess over highest single agent” value did it give?
Answer: Its value is 84.7.

Question: `COC(=O)N1CCN(Cc2cccc(NC(=O)Nc3ccc(C)nc3)c2F)CC1` + Cc1sc2c(c1C)C(c1ccc(Cl)cc1)=N[C@@H](CC(=O)OC(C)(C)C)c1nnc(C)n1-2 [NCGC00250412-19] was tested. Which “excess over highest single agent” value did it give?
Answer: The value was -134.

Question: How did the “excess over highest single agent” value turn out when `CN(C)CCCN1c2ccccc2CCc2ccc(Cl)cc21` + Cc1sc2c(c1C)C(c1ccc(Cl)cc1)=N[C@@H](CC(=O)OC(C)(C)C)c1nnc(C)n1-2 [NCGC00250412-19] was run?
Answer: The value was -47.1.

Question: With `c1cc(-c2sc(-c3ccncc3)c(-c3ccncc3)c2-c2ccncc2)ccn1` + Cc1sc2c(c1C)C(c1ccc(Cl)cc1)=N[C@@H](CC(=O)OC(C)(C)C)c1nnc(C)n1-2 [NCGC00250412-19] as the compound, how does the “excess over highest single agent” value read?
Answer: Its value is -182.

Question: How did the “excess over highest single agent” value turn out when `CNC(=O)c1ccc2cc([C@@]3(O)CCn4cncc43)ccc2c1` + Cc1sc2c(c1C)C(c1ccc(Cl)cc1)=N[C@@H](CC(=O)OC(C)(C)C)c1nnc(C)n1-2 [NCGC00250412-19] was run?
Answer: The value was -173.

Question: Which “excess over highest single agent” value does the source give for `CS(=O)(=O)c1ccc([C@@H](O)[C@@H](CO)NC(=O)C(Cl)Cl)cc1` + Cc1sc2c(c1C)C(c1ccc(Cl)cc1)=N[C@@H](CC(=O)OC(C)(C)C)c1nnc(C)n1-2 [NCGC00250412-19] here?
Answer: Its value is -36.6.

Question: How did the “excess over highest single agent” value turn out when `C[C@]12C=CC(=O)C=C1CC[C@@H]1[C@@H]2[C@@H](O)C[C@@]2(C)[C@H]1CC[C@]2(O)C(=O)CO` + Cc1sc2c(c1C)C(c1ccc(Cl)cc1)=N[C@@H](CC(=O)OC(C)(C)C)c1nnc(C)n1-2 [NCGC00250412-19] was run?
Answer: The value was -35.3.

Question: `O=c1ncn2nc(Sc3ccc(F)cc3F)ccc2c1-c1c(Cl)cccc1Cl` + Cc1sc2c(c1C)C(c1ccc(Cl)cc1)=N[C@@H](CC(=O)OC(C)(C)C)c1nnc(C)n1-2 [NCGC00250412-19] was tested. Which “excess over highest single agent” value did it give?
Answer: The value was -16.5.

Question: How did the “excess over highest single agent” value turn out when `O=c1[nH]cc(F)c(=O)[nH]1` + Cc1sc2c(c1C)C(c1ccc(Cl)cc1)=N[C@@H](CC(=O)OC(C)(C)C)c1nnc(C)n1-2 [NCGC00250412-19] was run?
Answer: Its value is 42.1.

Question: `CN[C@@H](C)[C@H]1[C@H](O)C[C@@]2(C)[C@@H]3CC[C@H]4C(C)(C)[C@@H](NC)CC[C@@]45C[C@@]35CC[C@]12C` + Cc1sc2c(c1C)C(c1ccc(Cl)cc1)=N[C@@H](CC(=O)OC(C)(C)C)c1nnc(C)n1-2 [NCGC00250412-19] was tested. Which “excess over highest single agent” value did it give?
Answer: The value was -149.

Question: Which “excess over highest single agent” value does the source give for `CN(C)NC(=O)CCC(=O)O` + Cc1sc2c(c1C)C(c1ccc(Cl)cc1)=N[C@@H](CC(=O)OC(C)(C)C)c1nnc(C)n1-2 [NCGC00250412-19] here?
Answer: Its value is -133.

Question: Which “excess over highest single agent” value does the source give for `C[C@@H](c1ncncc1F)[C@](O)(Cn1cncn1)c1ccc(F)cc1F` + Cc1sc2c(c1C)C(c1ccc(Cl)cc1)=N[C@@H](CC(=O)OC(C)(C)C)c1nnc(C)n1-2 [NCGC00250412-19] here?
Answer: Its value is -54.8.

Question: With `Cc1c(NC(=O)c2ccc(C(C)(C)C)cc2)cccc1-c1cn(C)c(=O)c(Nc2ccc(C(=O)N3CCOCC3)cc2)n1` + Cc1sc2c(c1C)C(c1ccc(Cl)cc1)=N[C@@H](CC(=O)OC(C)(C)C)c1nnc(C)n1-2 [NCGC00250412-19] as the compound, how does the “excess over highest single agent” value read?
Answer: Its value is -90.9.

Question: Which “excess over highest single agent” value does the source give for `O=C(O)Cc1ccccc1Nc1c(Cl)cccc1Cl` + Cc1sc2c(c1C)C(c1ccc(Cl)cc1)=N[C@@H](CC(=O)OC(C)(C)C)c1nnc(C)n1-2 [NCGC00250412-19] here?
Answer: Its value is -76.1.

Question: How did the “excess over highest single agent” value turn out when `C[C@@H]1CC(=O)NN=C1c1ccc(NN=C(C#N)C#N)cc1` + Cc1sc2c(c1C)C(c1ccc(Cl)cc1)=N[C@@H](CC(=O)OC(C)(C)C)c1nnc(C)n1-2 [NCGC00250412-19] was run?
Answer: Its value is -157.

Question: For `CN(C)CCCNC(=O)c1ccc(-c2cc(O)c3ncccc3c2)cc1` + Cc1sc2c(c1C)C(c1ccc(Cl)cc1)=N[C@@H](CC(=O)OC(C)(C)C)c1nnc(C)n1-2 [NCGC00250412-19], which “excess over highest single agent” value is on record?
Answer: The value was 404.

Question: Which “excess over highest single agent” value does the source give for `NC1(c2ccc(-c3nc4ccn5c(=O)[nH]nc5c4cc3-c3ccccc3)cc2)CCC1` + Cc1sc2c(c1C)C(c1ccc(Cl)cc1)=N[C@@H](CC(=O)OC(C)(C)C)c1nnc(C)n1-2 [NCGC00250412-19] here?
Answer: The value was -281.
